# From publication PMC12040169 (PLOS Biology, 2025)
# Some of the results follow.
# Test system: T1, CTL2-GFP (C. trachomatis L2/434/Bu, GFP-expressing)
# T1 construct: L2/434/Bu, GFP-expressing
# Parameters: species or system HeLa; Intracellular C. trachomatis growth in HeLa cells, bulk GFP fluorescence relative to DMSO
# Settings: bulk GFP, single well; 28.5 h, 10 µM; inhibitor
row,SMILES,% of control remaining [%]
1,Cc1ccc(N(CCc2cc(C(F)(F)F)cc(C(F)(F)F)c2)C(=O)CN)cc1NC(=O)CN(C)C [CBK003630T],133.845
2,COc1ccccc1CC(=O)N1CCCC(c2cc3ncccc3[nH]2)C1 (stereo not shown) [CBK283417],122.134
3,O=C(Oc1cccc(-c2cnc3ccccc3n2)c1)c1cccc(S(=O)(=O)N2CCOCC2)c1 [CBK262096],97.2397
4,O/N=C/Nc1nccc(-c2cc(Cl)sc2Cl)n1 [CBK005934],151.377
5,COc1cc(OC)cc(C(=O)N2CCC3(CC2)CC(=O)c2cc(C)ccc2O3)c1 [CBK167804],113.995
6,Cc1cc(COc2nccnc2N2CCCC2)no1 [CBK115755],104.386
7,Cc1cc(C)cc(OCc2nnc(SCC(=O)N3CCN(c4ccccc4)CC3)o2)c1 [CBK268012],126.192
8,CC(C#N)(NC(=O)COc1ncnc2sc3c(c12)CCC3)C1CC1 (stereo not shown) [CBK306333],92.4417
9,Cc1cnc(CN2CCNC(=O)C2c2ccccc2C(F)(F)F)o1 (stereo not shown) [CBK306431],80.4768
10,CN(C)CCN(C)C(=O)c1ccc(-c2cc3ccccc3o2)nc1NCc1cccnc1 [CBK076160],113.479
11,CCCCCCC(C)n1c(-c2nonc2N)nc2ccccc21 (stereo not shown) [CBK062648],126.737
12,CCN1C(=O)/C(=C/c2cc(Br)ccc2OCc2cccc([N+](=O)[O-])c2)NC1=S [CBK265138],156.205
13,COc1ccc(-c2nnc([C@H]3CCN(Cc4cccc(C#N)c4)C3)o2)cc1 [CBK289400],112.018
14,O=C(Nc1nc(-c2ccccc2)cs1)c1ccc(N2C(=O)CCC2=O)cc1 [CBK287333],145.739
15,Cc1ccc(-n2c(SCC(=O)c3ccc4c(c3)OCO4)nnc2-c2ccncc2)cc1 [CBK266132],188.469
16,Cc1nnc(NC(=O)c2ccc3c(c2)OCO3)s1 [CBK287358],132.571
17,O=c1[nH]c2cc(NCCO)c([N+](=O)[O-])cc2[nH]1 [CBK009794],95.8537
18,COc1ccc(Cl)cc1NC(=O)CN(c1cc(C(F)(F)F)ccc1Cl)S(C)(=O)=O [CBK264724],120.368
19,Cc1cccc(NC(=O)COc2ccccc2CNc2ccc(Br)cc2)c1 [CBK266534],133.857
20,Cc1cc(C)[n+](-c2nccs2)c(C)c1 [CBK008782G],90.2271
21,CN(C)c1ccc(-c2cn3ccnc3c(NC3CC3)n2)cc1 [CBK037894],110.562
22,Cc1sc2nc(C)n(C3CCN(C(=O)C(C)C)CC3)c(=O)c2c1C [CBK282414],116.066
23,Cc1ccc(C(=O)C(NC(=O)c2ccco2)Nc2cccc3ccccc23)cc1 (stereo not shown) [CBK263856],66.4912
24,COc1ccc(-n2c(SCc3nc4ccccc4[nH]3)nc3sc4c(c3c2=O)CCCC4)cc1 [CBK267558],143.672
25,COc1ccccc1-c1nn2c(Cn3nnc4ccccc43)nnc2s1 [CBK268373],148.958
26,O=C(C/C=N/OCc1ccccc1)c1sccc1Cl [CBK021611],141.54
27,Cc1nc([N+](=O)[O-])c(N2CCN(C)CC2)n1Cc1ccccc1 [CBK261421],118.063

row,SMILES,% of control remaining [%]
1,CC(=O)Nc1ccc(CC(C(=O)O)c2ccccc2)cc1 (stereo not shown) [CBK286600],124.987
2,CCCC(=O)Nc1cc(S(=O)(=O)NC)ccc1C [CBK024770],124.391
3,Cc1ccc2[nH]c(SCc3nc(-c4cccs4)no3)nc2c1 [CBK269509],113.771
4,COc1ccccc1N1CCN(c2nccc3sc(S(=O)(=O)NC4CCC4)cc23)CC1 [CBK038248C],126.52
5,COc1ccc(C(=O)Nc2ccc3[nH]ccc3c2)cc1Cl [CBK159681],100.379
6,N=C1/C(=C/c2ccc(-c3cccc([N+](=O)[O-])c3)o2)C(=O)N=C2SC(SCc3ccccc3)=NN12 [CBK265354],131.441
7,COc1ccc(CC(=O)N2CCC(Cc3cccc(-c4cccs4)c3)(C(N)=O)CC2)cc1 [CBK285744],124.853
8,FC(F)(F)c1cccc(CSc2nc3ccccc3nc2N2CCCC2)c1 [CBK107190],83.5542
9,CC(C)c1ccc(/C=C/C(=O)NC(=S)Nc2cccc(C(=O)O)c2)cc1 [CBK265024],100
10,CC(C)CCN(C)C(=O)c1cccc(S(=O)(=O)NCc2ccsc2)c1 [CBK307656],118.389
11,CCOc1ccc(CNCc2ccc(C(=O)O)cc2)cc1OC [CBK269590C],145.302
12,O=C(CSc1nc(O)cc(=O)n1-c1ccccc1)c1ccccc1 [CBK261745],102.207
13,N=C(N)NCCc1c[nH]c2ccccc12 [CBK024011G],71.2117
14,OC(CNCCc1cccnc1)COc1cccc2c1CCCC2 (stereo not shown) [CBK002237],87.4666
15,Cc1cccc(/N=C(\N)Nc2nc(=O)cc(C)[nH]2)c1 [CBK288144],121.981
16,CC(=O)NCCNC(=O)c1ccc(C)nc1N1CCOCC1 [CBK076453],157.391
17,NC(=O)c1ccccc1NC(=O)Cc1ccc2c(c1)CCCC2 [CBK298334],85.6763
18,O=C(NCCS(=O)(=O)c1ccccc1)c1cnc(-c2ccc(Cl)cc2)c(-c2ccco2)c1 [CBK037546],143.6
19,CCCC(=O)Nc1ccccc1NC(=O)c1ccc2c(c1)OCO2 [CBK265841],126.108
20,CCC(Sc1nc(C)cc(C)n1)C(=O)Nc1ccc(NC(C)=O)cc1 (stereo not shown) [CBK269804],108.273
21,Cc1n[nH]c(C)c1CC(=O)NC(Cc1cccs1)c1ccccn1 (stereo not shown) [CBK285208],115.961
22,COCCNS(=O)(=O)c1cccc2c1CN(C(=O)c1ccccc1)CC2 [CBK306539],134.448
23,CC(C)c1ccc(N2C(=O)SC(c3ccccc3)C2=O)cc1 (stereo not shown) [CBK113687],109.625
24,c1ccc(Oc2cccc(C(N3CCOCC3)N3CCOCC3)c2)cc1 [CBK261798],110.99
25,O=C1CNC(=O)C2(C/C=C/C[C@H]3COCC[C@H]3N1)CCN(C(=O)C1CCOCC1)CC2 [CBK292143],156.33
26,OCc1nnc2c3ccccc3c(-c3ccccc3)nn12 [CBK269927],111.331
27,O=C(CSCc1ccc(Cl)cc1Cl)Nc1ccc(Oc2ccc3c(c2)C(=O)NC3=O)cc1 [CBK266779],131.972

row,SMILES,% of control remaining [%]
1,COc1ccc(CCN2C(=O)c3[nH]nc(-c4cc(C)c(C)cc4O)c3C2c2ccccc2)cc1 (stereo not shown) [CBK269154],142.325
2,COc1cc(C=CC(=O)N(C)c2ccccc2C(=O)O)cc(OC)c1OC [CBK296136],129.289
3,Cc1cc(C)c2oc(-c3ccc(C)c(NC(=O)COc4ccccc4C)c3)nc2c1 [CBK263067],96.9083
4,CC(C)S(=O)(=O)n1c(=O)n(CC(=O)c2csc3ccccc23)c2ccccc21 [CBK106559],90.286
5,Fc1ccc(OCCCCCN2CCC3(CC2)OCCc2c3[nH]c3ccccc23)cc1 [CBK113516T],42.5907
6,CN(CC(=O)O)c1ccccc1C(=O)O [CBK260996],114.392
7,Cc1ccc(C(=O)N(C)Cc2cc(-c3ccncc3)no2)c(=O)n1C [CBK307324],120.237
8,Cc1nc(C)n(CCNC(=O)C(C)Cc2cccs2)n1 (stereo not shown) [CBK282067],116.857
9,O=C(Cn1c(-c2ccc(F)cc2)cc2cccnc21)N1CCOCC1 [CBK285383],99.4383
10,COc1ccc(NS(=O)(=O)c2ccc(Cl)cc2Cl)c(C(=O)NCc2ccccc2)c1 [CBK113943],118.77
11,CCN(CC(=O)Nc1ccccc1OC)S(=O)(=O)c1ccccc1 [CBK269428],117.404
12,CCOc1ccc(OC(=O)c2ccc3c(c2)OCO3)cc1 [CBK149205],120.044
13,O=C1NCCCC12CCN(Cc1cnc(N3CCOCC3)nc1)CC2 [CBK285528],113.231
14,Cc1cc(NC(=O)c2ccccc2)nc2c1c(=O)oc1ccccc12 [CBK291126],107.771
15,O=C(NC1CCN(CC2(c3ccccc3)CC2)CC1)c1cc[nH]n1 [CBK285351],133.34
16,N#Cc1sc2nc(C34CC5CC(CC(C5)C3)C4)ccc2c1N [CBK267455],141.744
17,O=C1CC(Cc2ccccc2)C(=O)N1CCCn1ccnc1 (stereo not shown) [CBK265123G],120.372
18,Cc1ccc(-c2nnc(CNC(=O)c3ccccc3-c3ccccc3)o2)s1 [CBK286298],108.705
19,CCNCCOc1c(C)cc(C)cc1C [CBK270137C],84.5363
20,COc1ccc(Nc2nnc(-c3ccc(C(N)=O)cc3)c3ccccc23)cc1 [CBK264246],115.569
21,Cn1c(=O)n(C)c2cc(S(=O)(=O)NCC3(O)CCCNCC3)ccc21 (stereo not shown) [CBK306777],130.75
22,Brc1ccc(NCc2ccccn2)cc1 [CBK026347],140.988
23,COCCC(=O)N1C[C@@H](c2cccc(F)c2)[C@@]2(CCCC(=O)N2)C1 [CBK283450],115.744
24,COc1ccc(OCC(=O)NNC(=O)c2cnccn2)cc1 [CBK262619],110.613
25,O=C(Nc1cccc([N+](=O)[O-])c1)c1cc(S(=O)(=O)N2CCCCC2)ccc1Cl [CBK261367],118.374

# Compounds shown so far that contain bromine (three):
row,SMILES,% of control remaining [%]
12,CCN1C(=O)/C(=C/c2cc(Br)ccc2OCc2cccc([N+](=O)[O-])c2)NC1=S [CBK265138],156.205
19,Cc1cccc(NC(=O)COc2ccccc2CNc2ccc(Br)cc2)c1 [CBK266534],133.857
22,Brc1ccc(NCc2ccccn2)cc1 [CBK026347],140.988
